From PubChem BioAssay AID504444 (National Center for Advancing Translational Sciences (NCATS), 2011)
Screen size: about 360,000 compounds; about 7,500 (2.1%) were called active. Inconclusive results, whose numbers are uncertain, are shown with a selection of clear calls. The call rests on the fitted dose curve; in most records, active means well fitted inhibition curve with a large enough effect; inconclusive means small, poorly fitted or top-dose-only effect, or effect the other way; inactive means flat fitted curve, though single readings scatter. Potencies beside an inconclusive call are fits to weak or partial responses and may not hold up.

assay: Nrf2 qHTS screen for inhibitors; settings: A549 ARE-Fluc reporter, luciferase luminescence, 18-24 h; series mostly up to 46 µM; further: nearly all actives have a fitted effect of over 60% in size
Method in brief: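 A549 ARE_Fluc cells, 5000/well, 5% FBS OPTI-MEM; compounds in dose-response, 18-24 h at 37 °C/5% CO2; CellTiter-Fluor viability read (Ex 405/Em 525), then BugLite luciferase luminescence = Nrf2 activity.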
Potency means the concentration at half of the fitted maximal effect.

Structure (SMILES)	Potency
COc1ccc(-c2cc(C(=O)Nc3cc(Cl)ccc3O)no2)cc1	inconclusive: 18.4 µM [activator, single point]
O=C(O)/C=C\C(=O)Nc1ccccc1C(=O)NC1CCCCC1	inconclusive: 13 µM [activator, partial curve]
O=C(NC(=S)N(CCc1ccccc1)CCc1ccccc1)c1ccco1	active: 18.4 µM
COc1ccc(N2CCN(C(CNS(=O)(=O)c3ccc(C)cc3)c3ccccc3)CC2)cc1 (stereo not drawn)	inconclusive: 18.4 µM [falling, partial curve, poor fit]
O=C(CCCc1nc(-c2ccc(Cl)cc2)no1)NC1CCCCC1	active: 3.66 µM
Nc1ccccc1-c1nc2ccccc2[nH]c1=O	inconclusive: 16.4 µM [activator, single point]
N#C/C(=C\c1ccc(OCc2ccccc2)cc1)C(=O)Nc1ccc(C(=O)O)cc1	inconclusive: 32.6 µM [activator, single point]
Cc1cc(C)nc(-n2nc(C)cc2NC(=O)c2cccc(S(=O)(=O)N(C)C)c2)n1	inactive
O=C(Nc1ncc(Br)s1)C(Cc1ccccc1)n1cccc1 (stereo not drawn)	inconclusive: 29.1 µM [falling, single point]
COc1cc(NC(=O)CN2C(=O)NC(c3ccccc3)(c3ccccc3)C2=O)c(C)cc1[N+](=O)[O-]	active: 29.1 µM
O=C(NNC(=O)c1ccccc1Cl)c1cccs1	inconclusive: 25.9 µM [activator, single point]
COc1ccccc1/C=C/C(=O)OCCCN(C)C	inconclusive: 2.59 µM [activator, single point]
Cc1nc(Nc2c(Cl)cccc2Cl)sc1C(=O)Nc1ccccc1	inactive
Cc1cc(OC(C)C(=O)NCC2CCC(C(=O)O)CC2)c2c(C)c(Cc3ccccc3)c(=O)oc2c1 (stereo not drawn)	inconclusive: 16.4 µM [falling, partial curve, poor fit]
CCCCC(=O)NC(c1cccc([N+](=O)[O-])c1)c1c(OC(C)=O)ccc2ccccc12 (stereo not drawn)	inconclusive: 16.4 µM [falling, single point]
O=C(Cc1ccc(Cl)cc1)Nc1ccc2c(c1)C(=O)NC2=O	inconclusive: 20.6 µM [falling, single point]
CCc1ccccc1NC(=O)CN(C)C(=O)Cn1ncc(Cl)c(Cl)c1=O	inconclusive: 32.6 µM [falling, single point]
O=C(Nc1ccc(Br)cc1F)c1ccc2c(c1)OCCO2	inconclusive: 1.16 µM [activator, full curve, poor fit]
Cc1ccc(NCc2cccn2-c2nnc(N3CCC(C(=O)NCCc4ccc(Cl)cc4)CC3)s2)cc1	inconclusive: 29.1 µM [falling, single point]
CCn1cnc2cc(NCc3nc4ccccc4n3Cc3ccccc3)ccc21	inconclusive: 0.92 µM [activator, full curve]
COc1cccc(CN(C)C(=O)c2ccc(Cl)c(S(=O)(=O)N3CCCCCC3)c2)c1OC	active: 18.4 µM
COc1ccc(-n2c(C)nc3c(cnn3-c3ccc(F)cc3)c2=O)cc1	inconclusive: 6.51 µM [falling, full curve]
CCc1ccc(NC(=O)c2noc3c2CCC3)cc1	inconclusive: 1.3 µM [activator, partial curve, poor fit]

Structure (SMILES)	Potency
CCCCN(CC)CCCNC(=O)c1c(C)oc2ncnc(N3CCOCC3)c12	inconclusive: 29.1 µM [activator, single point]
Cc1cccc(OCC(=O)NCC(=O)N/N=C/c2ccc(O)cc2O)c1	inconclusive: 23.1 µM [falling, single point]
CC(C)(C)NC(=O)COC(=O)c1snc(C(=O)NC2CCCCC2)c1N	inconclusive: 8.2 µM [falling, partial curve]
Cc1csc2ncnc(NCCc3ccccn3)c12	inactive
CCOc1ccc(NC(=O)Nc2ccc(Br)cn2)cc1	inconclusive: 0.13 µM [activator, full curve, poor fit]
Oc1cc(Br)ccc1C=Nc1ccc(N2CCCCC2)cc1	inconclusive: 29.1 µM [activator, single point]
CCOc1ccc2[nH]cc(S(=O)(=O)c3ccc(Cl)cc3)c(=O)c2c1	inconclusive: 11.6 µM [falling, partial curve, poor fit]
Cc1nc2ccc(NC(=O)CSc3ccccc3)cc2s1	inconclusive: 9.2 µM [activator, partial curve]
COc1ccc2oc(=O)c(C(=O)N3CCN(c4ccc(C)cc4)CC3)cc2c1	inconclusive: 23.1 µM [falling, single point]
CCCCNC(=O)c1cc2c(-c3ccc(Cl)cc3)nn(C)c2s1	inconclusive: 0.082 µM [activator, full curve, poor fit]
O=C(CCCn1c(=O)c2cccn2c2ccccc21)NCCc1ccc(Cl)cc1	inconclusive: 25.9 µM [falling, single point]
CSc1nn(Cc2ccc(C)cc2)c(N)c1S(=O)(=O)c1ccccc1	active: 16.4 µM
COc1ccc(C(=O)c2sc3nc(-c4ccc(OC)cc4)ccc3c2N)cc1	inconclusive: 0.461 µM [activator, full curve, poor fit]
COc1cc(NC(=O)c2csc(N)n2)cc(C(=O)Nc2cccc(C(F)(F)F)c2)c1	inactive
C/C(=N/NC(=O)CNC(=O)c1cccnc1)c1ccc(Cl)c(Cl)c1	inactive
O=C(c1csc2c1CCCCC2)N1CCN(c2ncccn2)CC1	inconclusive: 18.4 µM [falling, single point]
COc1ccc(C(=O)CN2C(=O)NC3(CCc4ccccc43)C2=O)c(OC)c1 (stereo not drawn)	inconclusive: 10.3 µM [activator, partial curve, poor fit]
COc1ccccc1N1CCN(C(=O)c2ccc(S(=O)(=O)N3CCCCCC3)cc2)CC1	inactive
COC(=O)c1cc(-c2ccc(C)cc2)c2c(=O)n(C)c(=O)n(C)c2n1	inconclusive: 6.51 µM [falling, single point]
Cn1nc(C(=O)NCc2cccs2)c2ccccc2c1=O	inconclusive: 25.9 µM [falling, single point]
O=C(Nc1ccc([N+](=O)[O-])cc1)Nc1ccc(OC(F)F)c(Cl)c1	active: 20.6 µM
Cc1nc(NC(=O)c2ccccc2)sc1-c1csc(NCCc2ccccc2)n1	inconclusive: 20.6 µM [falling, single point]
O=C(Nc1ccc(F)cc1)Nc1sccc1-c1nc2ccccc2s1	inconclusive: 29.1 µM [falling, single point]

Structure (SMILES)	Potency
COCCSc1nnc(NC(=O)c2ccc3c(c2)OCO3)s1	inconclusive: 25.9 µM [activator, single point]
CCC(=O)c1ccc(Oc2nc3c(c(=O)n(C)c(=O)n3C)n2CC)cc1	inconclusive: 8.2 µM [falling, partial curve]
CCOC(=O)c1ccc2c(c1)NCc1cccc(OC)c1O2	inconclusive: 6.51 µM [activator, full curve, poor fit]
CC1CCN(CC(=O)Nc2nn(-c3ccccc3)nc2C(N)=O)CC1	inconclusive: 1.03 µM [activator, full curve, poor fit]
C/C(CC(=O)Nc1cc(C)ccn1)=N\NC(=O)C(=O)Nc1cccc(C)c1	inconclusive: 18.4 µM [activator, partial curve, poor fit]
CN1C(=O)NC(=O)C1c1ccccc1 (stereo not drawn)	inconclusive: 6.51 µM [activator, full curve, poor fit]
CN(CC(=O)Nc1ccccc1Br)C(=O)c1ccccc1OCc1ccccc1Cl	inconclusive: 25.9 µM [falling, single point]
O=C(O)c1ccc(B(O)O)cc1	inconclusive: 29.1 µM [activator, single point]
Cc1nn2c(N)c(C#N)cnc2c1-c1ccccc1	inactive
O=c1c(O)cccc2cc(O)c(O)c(O)c12	inactive
O=C(Nc1ccccc1)C1=C(c2ccccc2)S(=O)(=O)CCS1(=O)=O	inconclusive: 29.1 µM [falling, single point]
Cc1ccc(S(=O)(=O)N2CCC(C(=O)N[C@@H](C)C(=O)Nc3ccc(F)cc3)CC2)cc1	inconclusive: 23.1 µM [falling, single point]
Cc1cc(C2N=C(N)Nc3nc4ccccc4n32)c(C)n1-c1ccccc1Cl (stereo not drawn)	inactive
CC(OC(=O)c1cccc(NS(C)(=O)=O)c1)C(=O)Nc1ccc2c(c1)OCO2 (stereo not drawn)	active: 23.1 µM
O=C1CCCN1c1ccc(S(=O)(=O)N2CCC(c3ccccc3)CC2)cc1	inconclusive: 7.31 µM [falling, partial curve]
C=CCc1cccc(/C=N/NC(=O)CNc2cccc3ccccc23)c1O	inactive
Cc1ccc(-n2c(O)c(C=NC3CCS(=O)(=O)C3)c3ccccc3c2=O)c(C)c1 (stereo not drawn)	inactive
CCOC(=O)c1sc(NC(=O)c2cc(-c3ccccc3C)nc3ccccc23)c(C#N)c1C	active: 4.11 µM
CCCNC(=O)c1cn(CC)c2cc(N3CCN(C(=O)c4ccco4)CC3)c(F)cc2c1=O	inactive
Cc1c(CC(=O)NCc2ccc(F)cc2)c(=O)oc2cc(O)c(Cl)cc12	inactive
CCCOc1cccc(C(=O)Nc2cc(NC(=O)c3ccco3)ccc2OC)c1	inconclusive: 5.17 µM [falling, partial curve, poor fit]
CCCOc1ccc(-c2c(C(=O)N/N=C/c3ccc(OC)cc3)nnn2-c2nonc2N)cc1	inconclusive: 29.1 µM [falling, single point]

14 entries from above, with bars between the fields:
Structure (SMILES) | Potency
CCC(=O)c1ccc(Oc2nc3c(c(=O)n(C)c(=O)n3C)n2CC)cc1 | inconclusive: 8.2 µM [falling, partial curve]
CCOC(=O)c1ccc2c(c1)NCc1cccc(OC)c1O2 | inconclusive: 6.51 µM [activator, full curve, poor fit]
CC1CCN(CC(=O)Nc2nn(-c3ccccc3)nc2C(N)=O)CC1 | inconclusive: 1.03 µM [activator, full curve, poor fit]
O=C(O)c1ccc(B(O)O)cc1 | inconclusive: 29.1 µM [activator, single point]
O=c1c(O)cccc2cc(O)c(O)c(O)c12 | inactive
Cc1ccc(S(=O)(=O)N2CCC(C(=O)N[C@@H](C)C(=O)Nc3ccc(F)cc3)CC2)cc1 | inconclusive: 23.1 µM [falling, single point]
Cc1cc(C2N=C(N)Nc3nc4ccccc4n32)c(C)n1-c1ccccc1Cl (stereo not drawn) | inactive
CC(OC(=O)c1cccc(NS(C)(=O)=O)c1)C(=O)Nc1ccc2c(c1)OCO2 (stereo not drawn) | active: 23.1 µM
C=CCc1cccc(/C=N/NC(=O)CNc2cccc3ccccc23)c1O | inactive
Cc1ccc(-n2c(O)c(C=NC3CCS(=O)(=O)C3)c3ccccc3c2=O)c(C)c1 (stereo not drawn) | inactive
CCOC(=O)c1sc(NC(=O)c2cc(-c3ccccc3C)nc3ccccc23)c(C#N)c1C | active: 4.11 µM
CCCNC(=O)c1cn(CC)c2cc(N3CCN(C(=O)c4ccco4)CC3)c(F)cc2c1=O | inactive
Cc1c(CC(=O)NCc2ccc(F)cc2)c(=O)oc2cc(O)c(Cl)cc12 | inactive
CCCOc1cccc(C(=O)Nc2cc(NC(=O)c3ccco3)ccc2OC)c1 | inconclusive: 5.17 µM [falling, partial curve, poor fit]
